Earlier results as cited in patent US20130210039A1, “BLOOD INSULIN RESISTANCE AND DIABETES MARKER PROGRANULIN, METHOD FOR ANALYZING CONCENTRATION OF PROGRANULIN IN BLOOD SAMPLE, AND METHOD FOR SCREENING FOR SUBSTANCE THAT IMPROVES INSULIN RESISTANCE AND IMPROVES OR SUPPRESSES DIABETES” (priority 2010, published 2013).
For at least one compound, name, drawing or mass did not settle the structure.

Key:
cultured adipocytes = conditions: cited from earlier work
[1] = OGTT, 10-week-old diabetic (ob/ob) mice, oral every day for 1 week, vs solvent control; cited from earlier work

SMILES	expression level of progranulin (cultured adipocytes; cultured adipocytes treated with the substance alone)	blood glucose levels after a glucose load [1]	casual blood glucose levels (at 0 min) [1]	increase in progranulin expression level caused by impaired insulin action (cultured adipocytes; cultured adipocytes treated with TNF-α or dexamethasone, pioglitazone added)
C[C@@H]1C[C@H]2[C@@H]3CCC4=CC(=O)C=C[C@]4(C)[C@@]3(F)[C@@H](O)C[C@]2(C)[C@@]1(O)C(=O)CO [dexamethasone]	increased	–	–	–
CCc1ccc(CCOc2ccc(CC3SC(=O)NC3=O)cc2)nc1 (stereo not shown) [pioglitazone]	–	significantly low	significantly low	completely suppressed
